Primary screen of a compound library

Values are the deposited “Percent Effect”, in %.
The record does not define 0% and 100%; most values in the screen are far below 50% and negative numbers occur (in some assays of this library far below -100).
The compounds are a random part of those screened.
Two or more numbers in one place are separate tests of the same structure; such repeats can differ widely.

Mtb cholesterol medium: 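Whole-cell growth test on Mycobacterium tuberculosis, read after 4 days in a medium based on cholesterol and the lipid DPPC; the read-out is not stated. Tested at 50 µM. Higher reads as more growth inhibition (inferred: compounds with an IC50 in retests scored well above the rest). About 69,000 compounds were tested under these conditions; 0.54% (about 370) showed 50% or more at least once.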
Mtb glucose medium: 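Growth of Mycobacterium tuberculosis over 3 days (7H9 medium with glucose and tyloxapol); the read-out is not stated. Compounds at 50 µM. Higher reads as more growth inhibition (inferred: compounds with an IC50 in retests scored well above the rest). Of about 69,000 compounds tested this way, about 760 (1.1%) reached 50% or more in at least one test.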

Result for O=C(NCc1ccc(Br)c(F)c1)Nc1cn[nH]c1 was Mtb cholesterol medium: -22.47%; Mtb glucose medium: -11.35%. With O=C(O)[C@@H]1CN(C(=O)c2cc(C3CC3)n[nH]2)C[C@H]1c1cccc(F)c1 the screen gave Mtb cholesterol medium: 7.483%; Mtb glucose medium: 12.32%. CC1CN(C(=O)NCc2cnn(-c3ccc(F)cc3F)c2)CCO1 (stereo unspecified) read Mtb cholesterol medium: -33.98%; Mtb glucose medium: -25.62%. With CN(C(=O)Cn1nc(-c2ccc(F)cc2)oc1=O)C1CCS(=O)(=O)C1 (stereo unspecified) the screen gave Mtb cholesterol medium: -72.36%; Mtb glucose medium: -50.39% & -12.8%.

With Cc1c(C(=O)N2CCN(c3ccccn3)CC2)n(C)c2ccc(Cl)cc12 the screen gave Mtb cholesterol medium: 4.79%; Mtb glucose medium: 2.494% & 8.953%. With Cc1cc(C)cc(OCCN(C)C2CCOC2=O)c1 (stereo unspecified) the screen gave Mtb cholesterol medium: -0.5598%; Mtb glucose medium: 18.8%. For CC(C)(C)c1nc(CNC2CCCN(c3cccnn3)C2)no1 (stereo unspecified) the result was Mtb cholesterol medium: -4.72%; Mtb glucose medium: 27.89% & 36.69%. With O=C1NCC2(CCCN(C(=O)Nc3ccc4scnc4c3)CC2)O1 (stereo unspecified) the screen gave Mtb cholesterol medium: 10.43%; Mtb glucose medium: 10.89%.

For Cc1nn(C)c(N(C)C)c1CNCC(O)COc1ccccc1.Cl (stereo unspecified) the result was Mtb cholesterol medium: -8.579%; Mtb glucose medium: 1.301% & 0.244%. N#Cc1ccc(CNC(=O)NC2CCN(CC(F)(F)F)C2)cc1 (stereo unspecified) read Mtb cholesterol medium: 0.9425%; Mtb glucose medium: 27.04% & 4.259%. With Cc1cc(NCc2ccccc2CN2CCCCC2)n2ncnc2n1 the screen gave Mtb cholesterol medium: -14.54%; Mtb glucose medium: -7.167%. O=C(O)C(F)(F)F.[H][C@]12CCN(C(=O)c3ccncc3F)[C@@]1([H])CC[C@H](COCC(C)C)O2 read Mtb cholesterol medium: 20.07%; Mtb glucose medium: 31.54%.

With CC(C)NC(=O)CCC(=O)N1CCC(c2noc3cc(F)ccc23)CC1 the screen gave Mtb cholesterol medium: -29.27%; Mtb glucose medium: -26.62%. With CC(C)(C)OC(=O)N1CSC[C@@H]1C(=O)NCc1ccncc1 the screen gave Mtb cholesterol medium: -8.609%; Mtb glucose medium: -0.9599% & -14.54%. With Cc1nc(CN2CCCC(Cn3cncn3)C2)nc2ccccc12 (stereo unspecified) the screen gave Mtb cholesterol medium: 4.474%; Mtb glucose medium: -43.59%. Result for CCOC(=O)c1cnn(-c2cc(Oc3cccc(C)c3)ncn2)c1N was Mtb cholesterol medium: -6.127%; Mtb glucose medium: -23.77%.

CN1CCN(CCOc2ccc(NC(=O)c3ccncc3)cc2)CC1 read Mtb cholesterol medium: -12.89%; Mtb glucose medium: -21.9%. For CS(=O)(=O)N1CCC(c2nccn2Cc2ccccn2)CC1 the result was Mtb cholesterol medium: -10.14%; Mtb glucose medium: -0.7344%. Result for CCC[C@H]1CN(C(=O)Cn2ccccc2=O)C[C@@H]1NS(C)(=O)=O was Mtb cholesterol medium: -20.44%; Mtb glucose medium: -8.805%. Result for COc1cccc(C(=O)N2CCCC(CNS(C)(=O)=O)C2)c1 (stereo unspecified) was Mtb cholesterol medium: 0.1933%; Mtb glucose medium: 26.71%.

O=C(c1ccc2c(c1)CCCC2)N1CCN(c2cnccn2)CC1 gave Mtb cholesterol medium: -8.2%; Mtb glucose medium: -0.6375%. Cc1ccc(CN2CC[C@H](O)[C@@H](n3ccc(=O)[nH]c3=O)CC2)cc1 gave Mtb cholesterol medium: -16.48%; Mtb glucose medium: -7.707%. Result for CCc1cn[nH]c1C1CCN(C(=O)c2cc(C(C)=O)c(C)[nH]c2=O)CC1 was Mtb cholesterol medium: -26.94%; Mtb glucose medium: -36.86%. Result for O=C(N[C@]12CC1CN(C(=O)c1ccco1)C2)c1ccoc1 (stereo partly specified) was Mtb cholesterol medium: 2.703%; Mtb glucose medium: -24.32%.

Cc1cccc(C2(O)CCN(C(=O)c3ccccn3)CC2)c1C gave Mtb cholesterol medium: 5.621% & -6.737%; Mtb glucose medium: 0.1301% & 22.58%. Cc1ncsc1C(=O)N1CCCC1c1c(C)nn(C)c1C (stereo unspecified) read Mtb cholesterol medium: -7.558%; Mtb glucose medium: -0.3195%. For Cc1nccn1C1CCCN(C(=O)c2ccc(N3CCCC3)nn2)C1 (stereo unspecified) the result was Mtb cholesterol medium: 13.37%; Mtb glucose medium: 78.28%. For Cc1cccnc1CNC(=O)CC1C(=O)NCCN1CC(C)(C)C (stereo unspecified) the result was Mtb cholesterol medium: 14.13%; Mtb glucose medium: -4.918% & 0.4925%.

For Cc1ccc(Cl)cc1N1CCN(CC(=O)NC(C)c2ccco2)CC1 (stereo unspecified) the result was Mtb cholesterol medium: -14.11%; Mtb glucose medium: 16.63%. COC(=O)N1CCN(Cc2ccccc2C(C)(C)C#N)CC1 gave Mtb cholesterol medium: 21.18%; Mtb glucose medium: 8.121%. CN(C)CC(Nc1nc(N)nc2c1CCNCC2)c1ccccc1 (stereo unspecified) gave Mtb cholesterol medium: 14.72%; Mtb glucose medium: 14.32%. With Cc1nc(NC(=O)COCC2CC2)ccc1Br the screen gave Mtb cholesterol medium: -14.66%; Mtb glucose medium: 43.64%.

Result for CCC(C)C(=O)N(C)Cc1cc(F)ccc1N1CCC(OC)CC1 (stereo unspecified) was Mtb cholesterol medium: 1.711%; Mtb glucose medium: 11.59%. Cn1cccc1C(=O)N1CCC2(CCCN(CC3CCC3)C2=O)C1 (stereo unspecified) read Mtb cholesterol medium: -10.57% & -9.465%; Mtb glucose medium: 6.831%. For CC(=O)N1CCCC(Cc2cnc(C(=O)N3CCC(C)CC3)cn2)C1 (stereo unspecified) the result was Mtb cholesterol medium: -17.56%; Mtb glucose medium: 10.88%. With CCCNC(=O)c1cc(-c2ccn(C(C)C)n2)n2ccccc12 the screen gave Mtb cholesterol medium: 29.22%; Mtb glucose medium: 22.98% & 30.85%.

O=C(NC1CC1)c1cc(C2CC2)nc2onc(C3CCNCC3)c12 gave Mtb cholesterol medium: 12.34%; Mtb glucose medium: 40.69%.

For reference, 4 entries once more:

| structure | Mtb cholesterol medium | Mtb glucose medium |
|---|---|---|
| `CC1CN(C(=O)NCc2cnn(-c3ccc(F)cc3F)c2)CCO1` (stereo unspecified) | -33.98 | -25.62 |
| `COC(=O)N1CCN(Cc2ccccc2C(C)(C)C#N)CC1` | 21.18 | 8.121 |
| `CCc1cn[nH]c1C1CCN(C(=O)c2cc(C(C)=O)c(C)[nH]c2=O)CC1` | -26.94 | -36.86 |
| `O=C(c1ccc2c(c1)CCCC2)N1CCN(c2cnccn2)CC1` | -8.2 | -0.6375 |

The values are deposited in ChEMBL (CHEMBL3988442, “University of Dundee, Small-Polar-MMV Screening Library” (2021)).